Some entries share one result that the patent states for a list of compounds. For at least one compound, name, drawing or mass did not settle the structure. Bridge positions count the residues as written; N and C are the ends. Peptide text beside a SMILES is read from it.
Target: ACA antibodies
Test: KD of proline-deleted cyclic peptides for binding to ACA antibodies
Parameters: species or system human
Settings: peptides with proline in second to last position removed

SMILES	Kd
CC[C@H](C)[C@@H]1NC(=O)[C@@H](NC(=O)[C@@H]2CCCN2C(=O)CN)CSSC[C@@H](C(=O)NCC(=O)O)NC(=O)[C@H](CCCNC(=N)N)NC(=O)[C@H](CC(=O)O)NC(=O)[C@H](CCCNC(=N)N)NC(=O)[C@H](C)NC(=O)[C@H](CC(C)C)NC(=O)[C@H](CC(C)C)NC1=O [CB2*, GPCILLARDRCG] (H-GPCILLARDRCG-OH; disulfide 3-11)	50 to 100 nM
CC[C@H](C)[C@@H]1NC(=O)[C@H](CC(C)C)NC(=O)[C@@H](NC(=O)[C@@H]2CCCN2C(=O)CN)CSSC[C@@H](C(=O)NCC(=O)O)NC(=O)[C@H](CCCNC(=N)N)NC(=O)[C@H](CC(=O)O)NC(=O)[C@@H]2CCCN2C(=O)[C@H](C)NC(=O)[C@H](CC(C)C)NC1=O [5A12 (GPCLILAPDRCG), GPCLILAPDRCG] (H-GPCLILAPDRCG-OH; disulfide 3-11)	50 to 100 nM

From patent publication US20040009904A1, “APL immunoreactive peptides, conjugates thereof and methods of treatment for aPL antibody-mediated pathologies” (priority 1995, published 2004)
